Assay results taken from PubChem BioAssay AID2685 (National Center for Advancing Translational Sciences (NCATS), 2010).
Some of the results follow. These are further read-outs of the screen, such as a control signal, another cell line or another target. No call is given for them. The list favours compounds with an active or inconclusive main result. The note in brackets gives the kind of curve behind each potency; many fits are weak.

Experiment: qHTS Assay for Lipid Storage Modulators in Drosophila S3 Cells;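 for cell number change: cells counted by Cell Tracker Red CMTPX staining in the red channel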
Conditions: BODIPY lipid droplet fluorescence, 18-24 h; for cell number change: measured here: cell count max response, cells fed with added oleic acid
Summary of the method: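 Drosophila S3 cells loaded with oleic acid (400 uM, as added) and compounds at several concentrations; lipid droplets imaged by 488-nm laser-scanning cytometry, 500–530 nm intensity and object ratio to cell channel. Percent activity normalized to 20 uM Triacsin C.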

[1] = measured here: lipid fluorescence (Fed channel) AC50, cells fed with added oleic acid
[2] = measured here: cell number channel AC50, cells fed with added oleic acid

Row | SMILES | AC50 [1] | cell number change | AC50 [2]
1 | COc1ccc(N(C(=O)c2cnccn2)C(C(=O)NCc2ccccc2)c2ccc(O)cc2)cc1 (configuration not stated) | 6.51 µM [rising, partial curve, poor fit] |  | 
2 | COc1cc([N+](=O)[O-])ccc1NC(=O)Nc1ccc(C(=O)N2CCCC2)cc1 | 29.1 µM [rising, single point] | 25.2% | 
3 | CCC(=O)Nn1c(C2CCC2)nc2ccccc2c1=O | 4.11 µM [falling, single point] | 0.265% | 
4 | O=C(CCCN1C(=O)C(c2ccccc2)Oc2cccnc21)NCc1ccccc1F (configuration not stated) |  | -7.91% | 0.146 µM [rising, partial curve]
5 | CC(CN1CCOCC1)OC(=O)/C=C/c1ccccc1 (configuration not stated) |  | 18.2% | 
6 | COC(=O)c1c(-c2c(Cl)cccc2Cl)noc1NC(=O)NN1CCOCC1 | 2.91 µM [falling, full curve] | -54.8% | 2.91 µM [falling, full curve]
7 | COc1ccc(NC(=O)COC(=O)c2ccc(-n3cnnn3)cc2)c([N+](=O)[O-])c1 | 0.92 µM [falling, full curve] | -50.1% | 0.651 µM [falling, full curve]
8 | COc1ccc(C(=O)NNC(=O)CSc2nnc(COc3ccc4ccccc4c3)n2C)cc1 |  | 33.9% | 3.66 µM [rising, single point]
9 | CCCN1CCc2c(sc(NC(=O)c3ccc(S(=O)(=O)N(C)c4ccccc4)cc3)c2C(=O)NC)C1 | 0.58 µM [falling, full curve] |  | 
10 | O=C1C(=O)N(Cc2cccnc2)C(c2cccc([N+](=O)[O-])c2)/C1=C(\O)c1ccc2c(c1)OCCO2 (configuration not stated) | 29.1 µM [rising, single point] | -8.55% | 
11 | O=C(N1CCOCC1)C12CC3CC(C1)CC(C(=O)N1CCOCC1)(C3)C2 | 3.26 µM [rising, single point] | 19.9% | 2.91 µM [rising, full curve, poor fit]
12 | COc1ccc(N2CCN(C(=O)CCc3ccc(S(=O)(=O)NC(C)(C)C)cc3)CC2)cc1 |  | -27.5% | 0.116 µM [falling, full curve, poor fit]
13 | O=C(CN1C(=O)NC(CCc2ccccc2)C1=O)NC1CC1 (configuration not stated) |  | -19.4% | 
14 | NC(=O)Nc1ccc(Oc2ncc(C(F)(F)F)cc2Cl)cc1 |  | 33.4% | 25.9 µM [rising, single point]
15 | CCC(=O)OCCNc1nc(-c2ccccc2)nc2ccccc12 | 32.6 µM [falling, partial curve] | -33.6% | 32.6 µM [falling, partial curve, poor fit]
16 | COc1cc(C(=O)O/N=C(\N)Cc2ccc([N+](=O)[O-])cc2)cc(OC)c1OC | 2.06 µM [rising, partial curve] | 12.7% | 
17 | COc1ccccc1NS(=O)(=O)c1ccc(C)c(C(=O)NCC(c2ccco2)N2CCCCC2)c1 (configuration not stated) | 29.1 µM [rising, single point] | -5.52% | 
18 | COc1cccc(C(=O)COc2ccccc2N2C(=O)C3C4C=CC(C4)C3C2=O)c1 (configuration not stated) |  | 2.75% | 
19 | COc1ccc(Nc2nccc(N(C)C)c2C#N)cc1 | 1.64 µM [rising, partial curve, poor fit] | 10.6% | 

Two of these compounds, set out differently:

| Row | SMILES | AC50 [1] | cell number change | AC50 [2] |
| --- | --- | --- | --- | --- |
| 12 | COc1ccc(N2CCN(C(=O)CCc3ccc(S(=O)(=O)NC(C)(C)C)cc3)CC2)cc1 |  | -27.5% | 0.116 µM [falling, full curve, poor fit] |
| 13 | O=C(CN1C(=O)NC(CCc2ccccc2)C1=O)NC1CC1 (configuration not stated) |  | -19.4% |  |

Going on with the list.

Row | SMILES | AC50 [1] | cell number change | AC50 [2]
20 | COc1ccccc1N(C)S(=O)(=O)c1ccc(C(=O)NCC2CCCCC2)cc1 |  | 7.85% | 
21 | COc1ccc(CSc2nc(O)cc(=O)n2CC(C)C)cc1F | 18.4 µM [rising, partial curve, poor fit] | 9.4% | 
22 | Cc1c(Cl)cccc1NC(=O)Cn1c(CCC(=O)O)ccc1-c1ccccc1 | 7.31 µM [falling, partial curve] | -3.55% | 
23 | Cn1nnnc1Sc1ncnc2scc(-c3cc4ccccc4o3)c12 |  | -43.6% | 14.6 µM [falling, partial curve]
24 | c1ccc(Cn2c(SCc3nc4ccccc4s3)nnc2-c2ccco2)cc1 | 8.2 µM [rising, partial curve] | -27.6% | 
25 | CC1CN(C(=O)c2cc(S(=O)(=O)N3CCCC3)ccc2Cl)CC(C)O1 (configuration not stated) | 2.91 µM [rising, partial curve] | 13% | 
26 | CCS(=O)(=O)n1nc(NCc2cccc(OC)c2)nc1NCc1cccc(OC)c1 | 20.6 µM [rising, single point] | -0.992% | 
27 | COc1cc(CNCc2ccccn2)ccc1OCc1ccc(Cl)cc1Cl | 0.82 µM [falling, full curve, poor fit] | -12% | 
28 | Cc1ccc(C(=O)c2no[n+]([O-])c2C(=O)c2ccc(C)cc2)cc1 | 18.4 µM [falling, single point] | -1.27% | 
29 | COc1ccc(C(=O)NCC(=O)N2CCN(c3ccc(F)cc3)CC2)cc1 |  | 9.52% | 
30 | Cc1ccc(CCNC(=O)CNS(=O)(=O)c2ccc3nc(C)sc3c2)cc1 | 6.51 µM [rising, single point] |  | 
31 | Oc1ccc(Br)cc1CNc1cccc2cccnc12 | 29.1 µM [falling, single point] | -39.1% | 29.1 µM [falling, single point]
32 | CCOc1ccccc1NC(=O)c1nnn(-c2ccc3c(c2)OCCO3)c1N |  | 13.2% | 
33 | CC(NC(=O)CN(c1cccc(C(F)(F)F)c1)S(C)(=O)=O)c1ccccc1 (configuration not stated) | 0.82 µM [falling, full curve, poor fit] | -17% | 
34 | Cc1cc(=O)n2[nH]c(N)c(N=Nc3ccccc3F)c2n1 | 0.651 µM [rising, full curve, poor fit] | 5.27% | 
35 | Cc1ccc(S(=O)(=O)N(CC(=O)N=Nc2c(O)[nH]c3ccccc23)c2ccc(C)c(C)c2)cc1 | 2.59 µM [rising, single point] | 8.68% | 
36 | CC(=O)Nc1ccc(N(CC(=O)NC2CCCC2)C(=O)CCC(=O)Nc2cc(C)on2)cc1 |  | 7.66% | 
37 | CCOc1ccc(NC(=O)CN2CCCC2c2cccs2)cc1S(=O)(=O)N1CCCC1 (configuration not stated) | 5.17 µM [falling, full curve] | -7.25% | 
38 | CCc1ccc(NC(=O)CSc2nc3ccccc3c(=O)n2CCCC(=O)N2CCCC2)cc1 | 1.84 µM [rising, full curve] | 83.5% | 1.46 µM [rising, full curve]
